Assay [1] concerns the target T1, Dickkopf 1 (DKK1) (mouse (endogenous in mouse AEC2 cells)) (UniProt O54908).
T1 sequence: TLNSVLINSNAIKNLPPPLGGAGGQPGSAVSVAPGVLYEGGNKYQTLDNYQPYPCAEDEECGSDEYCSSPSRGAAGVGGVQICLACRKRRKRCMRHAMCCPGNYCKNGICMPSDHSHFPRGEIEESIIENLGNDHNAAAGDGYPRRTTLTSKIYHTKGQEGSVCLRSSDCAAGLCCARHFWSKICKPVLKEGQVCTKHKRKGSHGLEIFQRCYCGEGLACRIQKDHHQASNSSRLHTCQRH
As to the kind of experiment: co-IP; endogenous proteins in WT mouse AEC2 cell lysate; RAB6 antibody, DKK1 antibody or IgG cross-linked to protein A/G agarose beads, incubated overnight at 4 °C, eluted, Western blot; both directions.

Assay [2] addresses Ras-related protein 6 (RAB6) (mouse (endogenous in mouse AEC2 cells)). The assay is described as above.

No constants are given. Whether binding was seen depends on the method and setting. Binding seen in cells or lysates may run through a third protein. A result given as binding can be weak or reduced; the word gives no strength.

In the case of “Ras-related protein 6 (RAB6) (mouse (endogenous in mouse AEC2 cells))”, the binding result in assay [1] is reported as “binds”.

B1: Dickkopf 1 (DKK1) (protein, UniProt O54908 32-272)
chain: T1 sequence
For B1, the binding result in assay [2] was “binds”.

(Values after PMC7533251.)
